From PMC12802923

By UniProt entry, the sequences of proteins in these tests, tags left out. Where a name states a change or a piece, a line headed by the entry shows the natural chain unless it says otherwise.
UniProt P32562: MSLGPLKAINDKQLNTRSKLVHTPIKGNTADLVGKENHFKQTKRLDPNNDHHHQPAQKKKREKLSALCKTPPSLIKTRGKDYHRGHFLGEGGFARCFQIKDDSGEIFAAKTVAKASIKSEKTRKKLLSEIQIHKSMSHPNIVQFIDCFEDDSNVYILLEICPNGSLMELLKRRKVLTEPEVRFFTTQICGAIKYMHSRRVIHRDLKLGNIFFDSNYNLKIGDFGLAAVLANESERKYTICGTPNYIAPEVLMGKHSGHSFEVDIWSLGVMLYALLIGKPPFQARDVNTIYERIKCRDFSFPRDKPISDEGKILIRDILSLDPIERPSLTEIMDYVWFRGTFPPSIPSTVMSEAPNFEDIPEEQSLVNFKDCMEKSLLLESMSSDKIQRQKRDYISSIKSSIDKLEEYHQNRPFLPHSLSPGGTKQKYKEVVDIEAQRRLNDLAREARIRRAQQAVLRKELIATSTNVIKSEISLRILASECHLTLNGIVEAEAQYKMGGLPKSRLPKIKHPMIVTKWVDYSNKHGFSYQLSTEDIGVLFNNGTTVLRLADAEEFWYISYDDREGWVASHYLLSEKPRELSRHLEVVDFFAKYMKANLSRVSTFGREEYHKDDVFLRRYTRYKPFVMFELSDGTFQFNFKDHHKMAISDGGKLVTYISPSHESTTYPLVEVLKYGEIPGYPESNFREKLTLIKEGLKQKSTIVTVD

Molecular target: Cdc5, kinase-dead substrate-trap allele (S. cerevisiae) (UniProt P32562)
Assay: co-IP; Cdc5-HA immunoprecipitated with anti-HA magnetic beads (2 h, 4°C, NP-40 buffer) from cells arrested in metaphase (cdc20 arrest, CDC20-AID) after galactose induction of Cdc5; Top2-9PK analysed in the precipitate

binding: binds
B1: Topoisomerase II (Top2), TOP2-9PK fusion (enzyme, UniProt P06786 1-1428)
chain: MSTEPVSASDKYQKISQLEHILKRPDTYIGSVETQEQLQWIYDEETDCMIEKNVTIVPGLFKIFDEILVNAADNKVRDPSMKRIDVNIHAEEHTIEVKNDGKGIPIEIHNKENIYIPEMIFGHLLTSSNYDDDEKKVTGGRNGYGAKLCNIFSTEFILETADLNVGQKYVQKWENNMSICHPPKITSYKKGPSYTKVTFKPDLTRFGMKELDNDILGVMRRRVYDINGSVRDINVYLNGKSLKIRNFKNYVELYLKSLEKKRQLDNGEDGAAKSDIPTILYERINNRWEVAFAVSDISFQQISFVNSIATTMGGTHVNYITDQIVKKISEILKKKKKKSVKSFQIKNNMFIFINCLIENPAFTSQTKEQLTTRVKDFGSRCEIPLEYINKIMKTDLATRMFEIADANEENALKKSDGTRKSRITNYPKLEDANKAGTKEGYKCTLVLTEGDSALSLAVAGLAVVGRDYYGCYPLRGKMLNVREASADQILKNAEIQAIKKIMGLQHRKKYEDTKSLRYGHLMIMTDQDHDGSHIKGLIINFLESSFPGLLDIQGFLLEFITPIIKVSITKPTKNTIAFYNMPDYEKWREEESHKFTWKQKYYKGLGTSLAQEVREYFSNLDRHLKIFHSLQGNDKDYIDLAFSKKKADDRKEWLRQYEPGTVLDPTLKEIPISDFINKELILFSLADNIRSIPNVLDGFKPGQRKVLYGCFKKNLKSELKVAQLAPYVSECTAYHHGEQSLAQTIIGLAQNFVGSNNIYLLLPNGAFGTRATGGKDAAAARYIYTELNKLTRKIFHPADDPLYKYIQEDEKTVEPEWYLPILPMILVNGAEGIGTGWSTYIPPFNPLEIIKNIRHLMNDEELEQMHPWFRGWTGTIEEIEPLRYRMYGRIEQIGDNVLEITELPARTWTSTIKEYLLLGLSGNDKIKPWIKDMEEQHDDNIKFIITLSPEEMAKTRKIGFYERFKLISPISLMNMVAFDPHGKIKKYNSVNEILSEFYYVRLEYYQKRKDHMSERLQWEVEKYSFQVKFIKMIIEKELTVTNKPRNAIIQELENLGFPRFNKEGKPYYGSPNDEIAEQINDVKGATSDEEDEESSHEDTENVINGPEELYGTYEYLLGMRIWSLTKERYQKLLKQKQEKETELENLLKLSAKDIWNTDLKAFEVGYQEFLQRDAEARGGNVPNKGSKTKGKGKRKLVDDEDYDPSKKNKKSTARKGKKIKLEDKNFERILLEQKLVTKSKAPTKIKKEKTPSVSETKTEEEENAPSSTSSSSIFDIKKEDKDEGELSKISNKFKKISTIFDKMGSTSATSKENTPEQDDVATKKNQTTAKKTAVKPKLAKKPVRKQQKVVELSGESDLEILDSYTDREDSNKDEDDAIPQRSRRQRSSRAASVPKKSYVETLELSDDSFIEDDEEENQGSDVSFNEED

These are yes or no findings as the source states them, for the method shown. Binding seen in cells or lysates may run through a third protein. Binding can be weak; no strength is given. Tags and fused reporters may be left off the sequences shown.
